Assay [1] has as its system MCF-7, HCT116, and A2780 cancer cell lines. Nature of the assay: MTT assay, three cancer cell lines taken together (average, overall range). Format: cell-based. The conditions noted are these: Homo sapiens; MCF-7, HCT116, A2780; read-out: Average of the three IC50 values against the three cancer cell lines. On the procedure:
MCF-7 (human breast adenocarcinoma), A2780 (human ovarian cancer) and HCT116 (human colorectal carcinoma), and MRC-5 (normal foetal lung fibroblast) cell lines were bought from the ATCC and were cultured in flasks which were incubated at 37 °C in an atmosphere of 5% CO2, 95% air, and 100% relative humidity, to maintain continuous logarithmic growth. MCF-7, A2780, and HCT116 were maintained in RPMI-1640 media (100 U/mL penicillin, 100 µg/mL streptomycin, and 10% foetal bovine serum, Gibco, Carlsbad, CA). MRC-5 cells were maintained in EMEM (100 U/mL penicillin, 100 µg/mL streptomycin, and 10% foetal bovine serum, Gibco, Carlsbad, CA). […] Cells were used within 10–20 passages and were checked for mycoplasma every 6 months, by measuring the bioluminescence (Myco Alert sample detection kit; Lonza, Basel, Switzerland) using the multiplate reader (Synergy HT, BioTek, Winooski, VT).
The MTT assay was used to measure the cytotoxicity and growth inhibitory activities and cytotoxicity of the new compounds according to our previous report[13]^,[17]. […] Cytotoxicity of the new compounds was calculated after treatment of cancer/normal cell lines for 72 h. The absorbance of the reduced MTT was determined using a microplate reader A570 nm.
The cytotoxic activity of the new compounds (15a–e, 16a–e, 20, and 21) was evaluated in vitro using MTT assay. […]
On the technique in general: Formazan colour is commonly taken as a measure of viable cells.

Assay [2] deals with MCF-7. The conditions noted are these: read-out: IC50 (µM ± SD) MCF-7; cited from earlier work.
Assay [3] deals with A2780. The conditions noted are these: read-out: IC50 (µM ± SD) A2780; cited from earlier work.
Assay [4] relates to HCT116. As to conditions: read-out: IC50 (µM ± SD) HCT116; cited from earlier work.

What is called IC50 is the concentration that gives 50% inhibition. With `COc1cc2c(c(OC)c1OC)-c1ccc(OC)c(=O)cc1[C@@H](NC(C)=O)CC2` [Colchicine], the IC50 in assay [1] was 0.026 µM; in assay [2] it was 0.012 ± 0.007 µM; in assay [3], 0.015 ± 0.002 µM; in assay [4], 0.05 ± 0.005 µM.
